In the supplement of paper PMC10849652 one finds log2 fold change data, which are given here for 39 targets.

By UniProt entry, the sequences of proteins in these tests, tags left out. Where a name states a change or a piece, a line headed by the entry shows the natural chain unless it says otherwise.
UniProt Q96G28: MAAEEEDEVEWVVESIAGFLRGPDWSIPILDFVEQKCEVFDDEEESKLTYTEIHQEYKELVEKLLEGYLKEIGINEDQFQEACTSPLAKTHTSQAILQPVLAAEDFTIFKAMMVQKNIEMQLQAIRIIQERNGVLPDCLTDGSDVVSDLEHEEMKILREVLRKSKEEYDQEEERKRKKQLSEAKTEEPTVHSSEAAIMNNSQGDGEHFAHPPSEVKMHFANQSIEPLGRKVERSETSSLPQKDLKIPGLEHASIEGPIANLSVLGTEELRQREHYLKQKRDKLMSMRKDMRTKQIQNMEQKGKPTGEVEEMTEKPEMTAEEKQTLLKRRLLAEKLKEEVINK
UniProt Q8N960: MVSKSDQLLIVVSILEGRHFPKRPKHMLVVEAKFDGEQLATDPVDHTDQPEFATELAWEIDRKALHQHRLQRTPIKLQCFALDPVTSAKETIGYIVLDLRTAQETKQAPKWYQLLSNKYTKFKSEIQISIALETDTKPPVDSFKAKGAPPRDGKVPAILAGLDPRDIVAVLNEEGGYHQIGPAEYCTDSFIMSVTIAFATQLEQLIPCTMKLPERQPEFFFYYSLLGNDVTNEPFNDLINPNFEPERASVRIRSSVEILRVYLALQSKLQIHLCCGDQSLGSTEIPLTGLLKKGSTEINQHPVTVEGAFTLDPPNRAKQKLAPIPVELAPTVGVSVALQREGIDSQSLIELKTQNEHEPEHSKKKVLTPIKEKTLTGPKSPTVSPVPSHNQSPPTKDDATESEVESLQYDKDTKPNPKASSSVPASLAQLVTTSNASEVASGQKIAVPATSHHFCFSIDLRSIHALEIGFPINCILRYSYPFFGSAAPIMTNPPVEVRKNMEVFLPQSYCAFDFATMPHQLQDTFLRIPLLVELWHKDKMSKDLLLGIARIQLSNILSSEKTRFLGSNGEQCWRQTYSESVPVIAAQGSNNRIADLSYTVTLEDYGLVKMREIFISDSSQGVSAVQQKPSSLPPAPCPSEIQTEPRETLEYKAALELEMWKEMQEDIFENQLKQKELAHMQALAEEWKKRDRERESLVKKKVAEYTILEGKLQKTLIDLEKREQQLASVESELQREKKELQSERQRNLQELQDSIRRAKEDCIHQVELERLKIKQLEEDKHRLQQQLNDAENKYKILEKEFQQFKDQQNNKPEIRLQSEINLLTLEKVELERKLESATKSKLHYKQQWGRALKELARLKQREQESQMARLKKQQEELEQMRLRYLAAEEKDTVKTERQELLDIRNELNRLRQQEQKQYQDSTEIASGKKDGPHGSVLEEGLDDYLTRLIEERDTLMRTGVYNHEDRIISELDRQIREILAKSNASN
UniProt Q99459: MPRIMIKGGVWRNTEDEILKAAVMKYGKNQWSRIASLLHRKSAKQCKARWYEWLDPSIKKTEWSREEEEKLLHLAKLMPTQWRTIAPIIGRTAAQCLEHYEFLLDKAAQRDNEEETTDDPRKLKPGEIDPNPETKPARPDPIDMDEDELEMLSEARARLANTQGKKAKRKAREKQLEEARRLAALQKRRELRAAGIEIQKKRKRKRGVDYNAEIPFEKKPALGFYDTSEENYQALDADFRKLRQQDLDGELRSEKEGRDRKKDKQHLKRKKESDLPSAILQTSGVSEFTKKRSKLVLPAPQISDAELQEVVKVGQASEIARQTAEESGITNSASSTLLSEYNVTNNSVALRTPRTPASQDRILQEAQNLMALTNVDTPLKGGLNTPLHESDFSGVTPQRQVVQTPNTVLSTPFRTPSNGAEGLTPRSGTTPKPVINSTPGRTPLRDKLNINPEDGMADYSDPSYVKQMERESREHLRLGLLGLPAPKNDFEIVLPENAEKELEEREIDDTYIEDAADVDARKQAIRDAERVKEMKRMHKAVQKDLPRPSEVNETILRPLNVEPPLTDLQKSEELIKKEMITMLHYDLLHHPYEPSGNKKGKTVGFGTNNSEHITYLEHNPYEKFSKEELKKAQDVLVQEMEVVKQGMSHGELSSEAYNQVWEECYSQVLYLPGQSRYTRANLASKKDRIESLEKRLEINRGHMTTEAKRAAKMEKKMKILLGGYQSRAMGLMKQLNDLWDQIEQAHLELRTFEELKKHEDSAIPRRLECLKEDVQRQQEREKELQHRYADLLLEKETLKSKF
UniProt P42773: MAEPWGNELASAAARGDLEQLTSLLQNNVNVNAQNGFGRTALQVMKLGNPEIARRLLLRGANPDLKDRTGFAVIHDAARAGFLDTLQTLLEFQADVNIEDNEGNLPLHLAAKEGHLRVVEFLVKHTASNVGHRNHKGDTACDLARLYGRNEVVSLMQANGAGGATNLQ
UniProt P11802: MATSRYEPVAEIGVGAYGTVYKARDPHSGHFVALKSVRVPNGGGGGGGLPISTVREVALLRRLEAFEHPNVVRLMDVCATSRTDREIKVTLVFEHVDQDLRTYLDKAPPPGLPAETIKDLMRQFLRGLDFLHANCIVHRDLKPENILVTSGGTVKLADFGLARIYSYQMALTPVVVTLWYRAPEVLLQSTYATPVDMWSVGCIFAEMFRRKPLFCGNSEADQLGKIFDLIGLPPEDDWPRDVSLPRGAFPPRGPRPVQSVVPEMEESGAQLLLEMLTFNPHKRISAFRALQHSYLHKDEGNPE
UniProt Q9NRR3: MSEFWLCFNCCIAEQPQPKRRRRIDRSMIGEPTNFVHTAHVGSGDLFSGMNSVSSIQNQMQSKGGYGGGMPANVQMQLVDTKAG
UniProt Q6ZU80: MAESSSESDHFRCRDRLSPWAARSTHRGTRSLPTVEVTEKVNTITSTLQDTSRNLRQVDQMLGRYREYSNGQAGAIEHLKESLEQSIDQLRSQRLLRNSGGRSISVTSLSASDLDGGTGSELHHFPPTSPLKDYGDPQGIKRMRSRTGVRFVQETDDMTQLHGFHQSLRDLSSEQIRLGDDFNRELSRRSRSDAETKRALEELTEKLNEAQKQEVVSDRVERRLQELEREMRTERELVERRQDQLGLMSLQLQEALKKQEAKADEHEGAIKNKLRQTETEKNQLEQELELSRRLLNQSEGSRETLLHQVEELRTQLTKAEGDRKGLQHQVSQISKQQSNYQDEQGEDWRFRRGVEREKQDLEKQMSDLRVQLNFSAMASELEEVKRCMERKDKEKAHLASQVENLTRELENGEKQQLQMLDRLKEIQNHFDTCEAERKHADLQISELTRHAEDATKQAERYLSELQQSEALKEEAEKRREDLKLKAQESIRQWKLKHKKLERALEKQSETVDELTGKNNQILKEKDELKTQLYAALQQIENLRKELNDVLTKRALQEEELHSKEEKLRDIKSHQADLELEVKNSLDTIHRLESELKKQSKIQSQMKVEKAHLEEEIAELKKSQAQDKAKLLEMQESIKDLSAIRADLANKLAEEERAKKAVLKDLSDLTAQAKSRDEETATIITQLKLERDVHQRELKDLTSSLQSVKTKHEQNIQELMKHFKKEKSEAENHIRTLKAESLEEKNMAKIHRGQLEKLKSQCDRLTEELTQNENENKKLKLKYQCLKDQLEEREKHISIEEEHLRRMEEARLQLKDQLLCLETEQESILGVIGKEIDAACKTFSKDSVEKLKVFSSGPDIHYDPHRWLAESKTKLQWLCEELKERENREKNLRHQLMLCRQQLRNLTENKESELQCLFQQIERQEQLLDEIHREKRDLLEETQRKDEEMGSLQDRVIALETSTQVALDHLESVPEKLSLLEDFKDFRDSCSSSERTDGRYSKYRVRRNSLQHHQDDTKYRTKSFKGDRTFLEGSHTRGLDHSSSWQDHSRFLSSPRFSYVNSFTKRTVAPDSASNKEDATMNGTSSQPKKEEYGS
UniProt Q9BWS9: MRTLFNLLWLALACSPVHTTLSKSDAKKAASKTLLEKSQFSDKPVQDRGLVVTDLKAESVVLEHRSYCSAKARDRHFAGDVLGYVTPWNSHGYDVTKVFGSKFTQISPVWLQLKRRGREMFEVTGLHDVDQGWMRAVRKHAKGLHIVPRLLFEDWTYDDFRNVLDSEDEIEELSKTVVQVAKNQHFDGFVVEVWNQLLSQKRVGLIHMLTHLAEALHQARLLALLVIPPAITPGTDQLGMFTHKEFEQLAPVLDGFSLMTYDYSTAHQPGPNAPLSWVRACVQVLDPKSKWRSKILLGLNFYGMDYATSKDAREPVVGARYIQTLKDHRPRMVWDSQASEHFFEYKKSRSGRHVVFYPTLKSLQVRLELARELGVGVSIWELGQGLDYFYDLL
UniProt Q9NRR8: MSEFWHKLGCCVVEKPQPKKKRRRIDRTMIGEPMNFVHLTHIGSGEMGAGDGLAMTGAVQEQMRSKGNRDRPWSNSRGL
UniProt P06493, whole entry, looked up: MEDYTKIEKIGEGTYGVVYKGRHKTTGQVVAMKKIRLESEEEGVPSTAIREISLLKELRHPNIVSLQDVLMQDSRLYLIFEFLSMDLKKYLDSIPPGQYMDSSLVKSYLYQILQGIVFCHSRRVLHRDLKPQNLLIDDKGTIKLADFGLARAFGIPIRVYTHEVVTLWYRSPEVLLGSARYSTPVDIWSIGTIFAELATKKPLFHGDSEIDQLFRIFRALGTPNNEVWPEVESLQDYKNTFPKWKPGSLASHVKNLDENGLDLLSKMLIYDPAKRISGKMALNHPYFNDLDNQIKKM
UniProt P26374: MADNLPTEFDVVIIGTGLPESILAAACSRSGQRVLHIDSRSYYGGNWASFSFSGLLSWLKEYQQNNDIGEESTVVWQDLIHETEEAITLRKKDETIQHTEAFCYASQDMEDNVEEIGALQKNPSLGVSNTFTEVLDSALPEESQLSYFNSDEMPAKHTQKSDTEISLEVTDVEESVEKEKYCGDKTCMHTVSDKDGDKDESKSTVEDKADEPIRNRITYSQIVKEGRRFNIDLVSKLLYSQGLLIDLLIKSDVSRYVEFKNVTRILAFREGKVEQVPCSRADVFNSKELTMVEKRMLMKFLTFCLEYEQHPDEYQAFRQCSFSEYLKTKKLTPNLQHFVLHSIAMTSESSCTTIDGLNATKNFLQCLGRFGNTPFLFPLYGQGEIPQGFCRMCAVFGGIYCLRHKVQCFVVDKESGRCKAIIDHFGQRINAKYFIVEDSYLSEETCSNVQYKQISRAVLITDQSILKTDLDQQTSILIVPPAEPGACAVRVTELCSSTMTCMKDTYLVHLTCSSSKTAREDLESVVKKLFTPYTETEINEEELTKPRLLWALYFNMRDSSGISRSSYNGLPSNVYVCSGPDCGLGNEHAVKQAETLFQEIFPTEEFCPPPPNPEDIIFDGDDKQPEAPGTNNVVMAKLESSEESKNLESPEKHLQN
UniProt Q9BU64: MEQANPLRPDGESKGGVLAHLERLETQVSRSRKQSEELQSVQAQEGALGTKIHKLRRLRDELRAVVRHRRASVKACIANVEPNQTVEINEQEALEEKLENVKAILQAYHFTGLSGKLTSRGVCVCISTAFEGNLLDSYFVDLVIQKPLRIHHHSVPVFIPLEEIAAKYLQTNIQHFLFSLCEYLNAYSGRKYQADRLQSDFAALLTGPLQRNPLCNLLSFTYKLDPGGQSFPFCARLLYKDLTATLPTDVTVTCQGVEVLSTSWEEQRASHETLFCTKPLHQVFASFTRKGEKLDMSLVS
UniProt Q9H3R5: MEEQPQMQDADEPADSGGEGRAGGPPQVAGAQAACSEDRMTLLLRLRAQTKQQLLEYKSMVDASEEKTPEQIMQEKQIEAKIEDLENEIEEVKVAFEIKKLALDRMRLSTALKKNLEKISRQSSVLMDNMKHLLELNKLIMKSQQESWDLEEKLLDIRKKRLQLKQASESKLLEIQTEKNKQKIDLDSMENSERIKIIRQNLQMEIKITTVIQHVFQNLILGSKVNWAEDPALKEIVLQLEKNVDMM
UniProt Q9H444: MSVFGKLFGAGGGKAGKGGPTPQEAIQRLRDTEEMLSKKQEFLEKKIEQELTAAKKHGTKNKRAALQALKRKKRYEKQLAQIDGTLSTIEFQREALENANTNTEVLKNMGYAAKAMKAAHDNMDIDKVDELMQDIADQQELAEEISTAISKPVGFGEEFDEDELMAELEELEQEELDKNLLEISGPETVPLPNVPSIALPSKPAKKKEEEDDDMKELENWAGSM
UniProt Q9BRQ6: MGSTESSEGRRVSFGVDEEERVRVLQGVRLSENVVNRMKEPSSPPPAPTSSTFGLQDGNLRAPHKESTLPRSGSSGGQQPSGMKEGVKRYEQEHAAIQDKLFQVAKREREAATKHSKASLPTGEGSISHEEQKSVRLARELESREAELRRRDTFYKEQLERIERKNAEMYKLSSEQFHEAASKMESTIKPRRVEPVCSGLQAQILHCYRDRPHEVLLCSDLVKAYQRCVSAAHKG
UniProt Q9BUK0: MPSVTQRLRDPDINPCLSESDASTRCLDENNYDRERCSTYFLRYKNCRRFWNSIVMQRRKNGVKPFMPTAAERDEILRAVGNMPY
UniProt P46527, whole entry, looked up: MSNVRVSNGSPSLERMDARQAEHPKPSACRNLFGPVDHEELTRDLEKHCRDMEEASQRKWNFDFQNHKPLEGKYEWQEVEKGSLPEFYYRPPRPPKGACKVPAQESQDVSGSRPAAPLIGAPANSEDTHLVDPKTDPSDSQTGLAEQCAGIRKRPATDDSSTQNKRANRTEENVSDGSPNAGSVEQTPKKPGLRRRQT

The other results are listed elsewhere or left out.

Compound in one experiment: NC(=O)c1cnc(N[C@@H]2CCCC[C@@H]2N)nc1Nc1cccc(-n2nccn2)c1
Put plainly: log2 fold change, soluble protein after heating vs DMSO (PISA); higher = thermal stabilisation; K562 cells, 10 uM, 30 min; active = over 0.2 and 3.5 SD of the protein, either way, in both replicates (recomputed). An outline of the steps:
(§1)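 Quantification of soluble protein used TMTpro 16plex LC-MS/MS, with channel sums equalised. Samples were the supernatant after 21,000xg for 90 min of pooled aliquots from K562 cells (2×10^6 cells/mL) treated with 10 μM compound for 30 min, heated for 3 min over 48°C-58°C, and extracted in PBS with 0.5% NP-40 at 4°C. Values, from duplicates, describe thermal stability against control samples on a log2 fold-change scale.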
Regarding CENPE (UniProt Q02224), the log2 fold change is inactive: 0.731.

In the case of CEP97 isoform 2 (UniProt Q8IW35), the log2 fold change was inactive: 0.055.

In the case of CEP135 (UniProt Q66GS9), the log2 fold change is inactive: 0.011.

As for CFAP36 isoform 2 (UniProt Q96G28), the log2 fold change was inactive: -0.1.

On to CEP120 (UniProt Q8N960), for which the log2 fold change was inactive: -0.082.

For the target CEP170 (UniProt Q5SW79), the log2 fold change is inactive: 0.007.

In the case of CDC5L (UniProt Q99459), the log2 fold change was inactive: 0.064.

CDKN2C (UniProt P42773): the log2 fold change was inactive: 0.041.

Turning to CDK4 (UniProt P11802), the log2 fold change was inactive: -0.293.

On to CDC42SE2 (UniProt Q9NRR3), for which the log2 fold change is inactive: 0.005.

For CDC45 isoform 3 (UniProt O75419), the log2 fold change is inactive: -0.014.

Turning to CEP128 (UniProt Q6ZU80), the log2 fold change was inactive: -0.029.

In the case of CFAP97 (UniProt Q9P2B7), the log2 fold change was inactive: 0.094.

In the case of CENPJ (UniProt Q9HC77), the log2 fold change was inactive: 0.084.

For the target CDKAL1 (UniProt Q5VV42), the log2 fold change is inactive: -0.071.

Take CHIC1 (UniProt Q5VXU3): the log2 fold change was inactive: -0.088.

CEP350 (UniProt Q5VT06): the log2 fold change is inactive: -0.153.

On to CEP131 (UniProt Q9UPN4), for which the log2 fold change was inactive: -0.028.

Consider CHID1 (UniProt Q9BWS9), for which the log2 fold change is inactive: -0.013.

On to CDC42SE1 (UniProt Q9NRR8), for which the log2 fold change was inactive: 0.055.

For the target CDK1 (UniProt P06493), the log2 fold change is inactive: 0.004.

With CHAF1A (UniProt Q13111), the log2 fold change is inactive: 0.046.

For CHML (UniProt P26374), the log2 fold change was inactive: -0.042.

CENPO (UniProt Q9BU64): the log2 fold change was inactive: -0.033.

Turning to CENPH (UniProt Q9H3R5), the log2 fold change is inactive: -0.062.

In the case of CHMP4B (UniProt Q9H444), the log2 fold change is inactive: -0.011.

Regarding CENPU (UniProt Q71F23), the log2 fold change is inactive: 0.133.

Consider CHCHD6 (UniProt Q9BRQ6), for which the log2 fold change is inactive: -0.185.

For the target CDK2AP1 (UniProt O14519), the log2 fold change was inactive: 0.041.

Turning to CHCHD7 isoform 4 (UniProt Q9BUK0), the log2 fold change was inactive: 0.006.

In the case of CEND1 (UniProt Q8N111), the log2 fold change was inactive: -0.068.

Consider CDKN1B (UniProt P46527), for which the log2 fold change is inactive: 0.178.

Compound in another experiment: NC1(c2ccc(-c3nc4ccn5c(=O)[nH]nc5c4cc3-c3ccccc3)cc2)CCC1
Described as above. Summed up:
as §1
Regarding CFAP36 isoform 2 (UniProt Q96G28), the log2 fold change is inactive: -0.095.

On to CEP120 (UniProt Q8N960), for which the log2 fold change is inactive: -0.386.

In the case of CEP170 (UniProt Q5SW79), the log2 fold change was inactive: 0.111.

Regarding CDC5L (UniProt Q99459), the log2 fold change is inactive: 0.073.

As to CDKN2C (UniProt P42773), the log2 fold change is inactive: -0.004.

Turning to CDK4 (UniProt P11802), the log2 fold change was inactive: -0.074.

As for CDC42SE2 (UniProt Q9NRR3), the log2 fold change was inactive: 0.218.

CEP128 (UniProt Q6ZU80): the log2 fold change was inactive: 0.095.

For the target CEP57 (UniProt Q86XR8), the log2 fold change is inactive: 0.415.

With CDKAL1 (UniProt Q5VV42), the log2 fold change is inactive: 0.

With CHIC1 (UniProt Q5VXU3), the log2 fold change is inactive: -0.286.

As to CEP350 (UniProt Q5VT06), the log2 fold change was inactive: -0.175.

As for CEP131 (UniProt Q9UPN4), the log2 fold change is inactive: 0.117.

For the target CEBPZ (UniProt Q03701), the log2 fold change was inactive: 0.331.

Turning to CHID1 (UniProt Q9BWS9), the log2 fold change is inactive: -0.064.

Turning to CDC42SE1 (UniProt Q9NRR8), the log2 fold change was inactive: -0.065.

In the case of CDK1 (UniProt P06493), the log2 fold change is inactive: -0.068.

On to CHAF1A (UniProt Q13111), for which the log2 fold change was inactive: 0.036.

For the target CHML (UniProt P26374), the log2 fold change was inactive: -0.065.

Regarding CEP250 (UniProt Q9BV73), the log2 fold change was inactive: 0.028.

Consider CENPO (UniProt Q9BU64), for which the log2 fold change is inactive: 0.245.

As to CENPH (UniProt Q9H3R5), the log2 fold change is inactive: -0.006.

For CHMP4B (UniProt Q9H444), the log2 fold change is inactive: -0.065.

Consider CHCHD6 (UniProt Q9BRQ6), for which the log2 fold change was inactive: -0.02.

As for CFB (UniProt P00751), the log2 fold change was inactive: 0.053.

With CDK2AP1 (UniProt O14519), the log2 fold change was inactive: -0.031.

As to CEP152 (UniProt O94986), the log2 fold change was inactive: -0.211.

With CHCHD7 isoform 4 (UniProt Q9BUK0), the log2 fold change was inactive: 0.023.

In the case of CDC42EP4 (UniProt Q9H3Q1), the log2 fold change is inactive: -0.059.

On to CDKN1C (UniProt P49918), for which the log2 fold change is inactive: 0.252.

With CDKN1B (UniProt P46527), the log2 fold change was inactive: 0.017.

Compound in another experiment: NCC(=O)Nc1ccc(-n2nc(C(F)(F)F)cc2-c2ccc3c(ccc4ccccc43)c2)cc1
The description is as above. An outline of the steps: as §1
As to CENPE (UniProt Q02224), the log2 fold change was inactive: 0.114.

As to CEP97 isoform 2 (UniProt Q8IW35), the log2 fold change is inactive: -0.126.

For CFAP36 isoform 2 (UniProt Q96G28), the log2 fold change is inactive: -0.152.

Turning to CEP120 (UniProt Q8N960), the log2 fold change was inactive: -0.025.

Take CEP170 (UniProt Q5SW79): the log2 fold change was inactive: 0.015.

For the target CDC5L (UniProt Q99459), the log2 fold change is inactive: -0.301.

Regarding CDKN2C (UniProt P42773), the log2 fold change is inactive: -0.024.

For CDK4 (UniProt P11802), the log2 fold change was inactive: 0.02.

On to CDC42SE2 (UniProt Q9NRR3), for which the log2 fold change is inactive: 0.02.

As for CEP128 (UniProt Q6ZU80), the log2 fold change is inactive: -0.234.

Regarding CFAP97 (UniProt Q9P2B7), the log2 fold change is inactive: 0.126.

Turning to CDKAL1 (UniProt Q5VV42), the log2 fold change is inactive: -0.089.

On to CEBPZ (UniProt Q03701), for which the log2 fold change was inactive: -0.264.

As for CHID1 (UniProt Q9BWS9), the log2 fold change was inactive: 0.05.

Turning to CDC42SE1 (UniProt Q9NRR8), the log2 fold change was inactive: -0.002.

With CDK1 (UniProt P06493), the log2 fold change was inactive: -0.047.

On to CHML (UniProt P26374), for which the log2 fold change was inactive: -0.023.

With CEP250 (UniProt Q9BV73), the log2 fold change is inactive: -0.071.

Take CENPO (UniProt Q9BU64): the log2 fold change was inactive: 0.029.

As for CENPH (UniProt Q9H3R5), the log2 fold change is inactive: 0.006.

For CHMP4B (UniProt Q9H444), the log2 fold change is inactive: -0.001.

CHCHD6 (UniProt Q9BRQ6): the log2 fold change was inactive: -0.019.

As to CFB (UniProt P00751), the log2 fold change was inactive: 0.069.

Regarding CEP152 (UniProt O94986), the log2 fold change was inactive: -0.129.

Regarding CHCHD7 isoform 4 (UniProt Q9BUK0), the log2 fold change was inactive: 0.104.

On to CDC42EP4 (UniProt Q9H3Q1), for which the log2 fold change is inactive: 0.171.

For CDKN1B (UniProt P46527), the log2 fold change is inactive: -0.177.
